Source: patent US20040203101A1
Results are given in words; binding and its absence hold for the method and conditions named. Some results given as binding are weak or reduced against the parent protein; the word gives no strength.

Sequences of proteins named here, by UniProt entry; tags and fusion partners are left off. Residues count along the entry.
UniProt P00750, residues 36-562: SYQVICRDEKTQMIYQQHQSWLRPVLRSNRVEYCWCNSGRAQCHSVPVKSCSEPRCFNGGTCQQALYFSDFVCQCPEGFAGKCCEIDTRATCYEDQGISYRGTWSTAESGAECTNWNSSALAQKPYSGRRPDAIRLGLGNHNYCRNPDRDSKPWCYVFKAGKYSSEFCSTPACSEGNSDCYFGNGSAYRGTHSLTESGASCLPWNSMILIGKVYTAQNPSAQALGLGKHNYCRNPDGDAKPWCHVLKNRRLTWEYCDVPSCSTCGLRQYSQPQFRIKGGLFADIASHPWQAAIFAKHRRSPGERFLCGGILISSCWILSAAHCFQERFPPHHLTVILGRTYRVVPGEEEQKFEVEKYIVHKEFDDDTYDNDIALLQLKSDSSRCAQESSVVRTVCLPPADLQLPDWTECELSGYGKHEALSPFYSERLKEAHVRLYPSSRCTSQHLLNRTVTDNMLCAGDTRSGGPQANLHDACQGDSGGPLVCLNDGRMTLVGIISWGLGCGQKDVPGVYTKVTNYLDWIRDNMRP

Target: tissue-type plasminogen activator, tPA (Genentech) (human) (UniProt P00750)
Experiment: cleavage of purified baculovirus BAIT on interaction with tPA; N-terminal sequencing

B1: second species of baculovirus-expressed mature BAIT lacking one additional N-terminal residue (N terminus Thr) (protein)
chain: TFPEEAIADLSVNMYNRLRATGEDENILFSPLSIALAMGMMELGAQGSTQKEIRHSMGYDSLKNGEEFSFLKEFSNMVTAKESQYVMKIANSLFVQNGFHVNEEFLQMMKKYFNAAVNHVDFSQNVAVANYINKWVENNTNNLVKDLVSPRDFDAATYLALINAVYFKGNWKSQFRPENTRTFSFTKDDESEVQIPMMYQQGEFYYGEFSDGSNEAGGIYQVLEIPYEGDEISMMLVLSRQEVPLATLEPLVKAQLVEEWANSVKKQKVEVYLPRFTVEQEIDLKDVLKALGITEIFIKDANLTGLSDNKEIFLSKAIHKSFLEVNEEGSEAAAVSGMIAISRMAVLYPQVIVDHPFFFLIRNRRTGTILFMGRVMHPETMNTSGHDFEEL
modifications: glycosylated (positions not stated)
With B1 the binding was “binds”.
